Test results as given in BindingDB's records for doi:10.1016/j.chembiol.2011.01.012 (University of Luxembourg, 2011).

The chains behind the UniProt entries cited, without tags or fusion partners. Where a name states a change or a piece, a line headed by the entry shows the natural chain unless it says otherwise.
UniProt O60674: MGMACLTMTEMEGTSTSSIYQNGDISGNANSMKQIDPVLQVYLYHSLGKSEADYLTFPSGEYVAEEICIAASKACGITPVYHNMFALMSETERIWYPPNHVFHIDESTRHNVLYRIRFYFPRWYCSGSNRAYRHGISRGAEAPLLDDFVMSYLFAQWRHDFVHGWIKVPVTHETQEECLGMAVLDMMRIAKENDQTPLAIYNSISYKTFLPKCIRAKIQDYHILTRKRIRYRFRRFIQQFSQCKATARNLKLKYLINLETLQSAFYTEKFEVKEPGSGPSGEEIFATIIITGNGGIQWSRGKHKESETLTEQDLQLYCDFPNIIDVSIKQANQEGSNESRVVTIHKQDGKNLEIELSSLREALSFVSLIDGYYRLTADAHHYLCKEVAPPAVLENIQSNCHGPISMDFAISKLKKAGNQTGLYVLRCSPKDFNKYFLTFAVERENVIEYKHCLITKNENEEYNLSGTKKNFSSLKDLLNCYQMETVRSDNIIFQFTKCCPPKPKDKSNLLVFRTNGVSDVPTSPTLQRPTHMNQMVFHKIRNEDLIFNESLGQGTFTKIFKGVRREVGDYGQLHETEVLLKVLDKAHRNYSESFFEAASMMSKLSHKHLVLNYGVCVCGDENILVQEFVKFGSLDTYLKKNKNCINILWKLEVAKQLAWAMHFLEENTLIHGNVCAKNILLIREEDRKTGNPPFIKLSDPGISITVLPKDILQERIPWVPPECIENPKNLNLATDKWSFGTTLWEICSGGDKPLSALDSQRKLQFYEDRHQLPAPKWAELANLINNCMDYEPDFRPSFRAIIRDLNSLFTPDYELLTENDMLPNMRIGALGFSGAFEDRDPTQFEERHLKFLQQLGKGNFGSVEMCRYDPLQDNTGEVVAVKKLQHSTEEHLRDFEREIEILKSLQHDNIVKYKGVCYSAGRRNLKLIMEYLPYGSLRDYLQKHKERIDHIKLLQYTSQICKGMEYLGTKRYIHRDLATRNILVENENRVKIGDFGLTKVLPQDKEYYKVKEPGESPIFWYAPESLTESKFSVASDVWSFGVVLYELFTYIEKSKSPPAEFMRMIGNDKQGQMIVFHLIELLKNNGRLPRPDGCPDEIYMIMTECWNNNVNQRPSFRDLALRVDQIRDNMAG

Target: Tyrosine-protein kinase JAK2 (Homo sapiens, UniProt O60674)
Assay: Enzyme Assay
Conditions: pH 7.5; 30 °C

Question: Which IC50 does the source give for CC(C)(O)C(=O)N1CCN(c2ccc(C(F)(F)F)c(C3=C(c4c[nH]c5ccccc45)C(=O)NC3=O)c2)CC1 [NIBR3049] here?
Answer: 2550 nM
